Measured values taken from article PMC11753365.
No constants are given. Whether binding was seen depends on the method and setting. Binding seen in cells or lysates may run through a third protein. For part of these data: A result given as binding can be weak or reduced; the word gives no strength.

Sequences of proteins named here, by UniProt entry; tags and fusion partners are left off. A change or cut given only in a name is not applied to a line headed by its entry.
UniProt Q9D112: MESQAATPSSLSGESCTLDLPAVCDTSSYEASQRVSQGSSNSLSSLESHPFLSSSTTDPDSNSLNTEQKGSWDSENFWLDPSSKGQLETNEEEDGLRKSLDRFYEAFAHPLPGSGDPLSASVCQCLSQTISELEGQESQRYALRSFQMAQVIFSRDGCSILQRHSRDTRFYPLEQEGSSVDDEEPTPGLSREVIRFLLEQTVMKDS

Legend:
TwinStrep–HA–SHLD3 [1] = assay: condition: only cells pre-treated with the ATM inhibitor KU55933 before irradiation; pull-down; as a2, cells pre-treated for 1 h with the ATM inhibitor KU55933 before irradiation
[2] = target: SHLD1^∆exon1 protein deleted of its first 59 amino acids (UniProt Q9D112); assay: pull-down; smaller-scale MagStrep-XT capture of tagged shieldin subunits from CH12-F3 lysates, beads boiled in Laemmli buffer, immunoblot (anti-STN1); cells mock-treated or irradiated; also cells pre-treated with the ATR inhibitor AZD6738 before irradiation
TwinStrep–HA–SHLD3 [3] = assay: as above

B1: Stn1 (protein, UniProt Q8K2X3 1-378)
chain: MPQPCLLMECESSPREEEIPPLFWGLDPVFLAFAKLYIKDILEMKESQQVPGTYFYNGHPIRRVDIMGAVISVKERETFYSYGVDDATGVINCVCWKKLSNAESSSDPAILSTARELSMTSQLKKLQETIEQKTRIGIGDIIRVRGSVRMFREEREICANIYYKVDDPVWNMQIARMLELPKLYQKVYDQPFRNPALQEEEALNNKDNLDLAGLTSLLSEKIKEFLQEKKMQSFYQQELETVESLQSLASRPVTHSTGSDQVELKDSGTSGVAQRVFKNALQLLQEKGLVFQRDSGSDKLYYVTTKDKDLQQKIYHIIKEDCQKPNHMEKGCHLLHILNCVHLNLRWDLSKAVLQRVLELLEDQSDIVSTADHYYAAF
binding (TwinStrep–HA–SHLD3 [1]): no binding | binding [2]: binds | binding (TwinStrep–HA–SHLD3 [3]): binds
